In the supplement of paper PMC10849652:
The other results are listed elsewhere or left out.

Chains of the proteins cited; added tags and fusions are not shown. Lines headed by an entry give the natural chain unless they say otherwise; changes in a name come on top.
UniProt Q2M3R5: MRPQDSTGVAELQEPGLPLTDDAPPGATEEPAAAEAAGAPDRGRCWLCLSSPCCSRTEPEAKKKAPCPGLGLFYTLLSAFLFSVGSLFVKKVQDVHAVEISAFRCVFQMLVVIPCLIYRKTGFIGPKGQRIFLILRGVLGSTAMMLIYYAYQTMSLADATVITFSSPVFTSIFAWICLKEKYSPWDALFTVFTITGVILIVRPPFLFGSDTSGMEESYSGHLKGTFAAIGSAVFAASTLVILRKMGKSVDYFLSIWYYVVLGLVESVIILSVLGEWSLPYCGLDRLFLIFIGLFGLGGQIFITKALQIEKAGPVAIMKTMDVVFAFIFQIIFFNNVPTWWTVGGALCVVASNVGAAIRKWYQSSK
UniProt Q3KQZ1: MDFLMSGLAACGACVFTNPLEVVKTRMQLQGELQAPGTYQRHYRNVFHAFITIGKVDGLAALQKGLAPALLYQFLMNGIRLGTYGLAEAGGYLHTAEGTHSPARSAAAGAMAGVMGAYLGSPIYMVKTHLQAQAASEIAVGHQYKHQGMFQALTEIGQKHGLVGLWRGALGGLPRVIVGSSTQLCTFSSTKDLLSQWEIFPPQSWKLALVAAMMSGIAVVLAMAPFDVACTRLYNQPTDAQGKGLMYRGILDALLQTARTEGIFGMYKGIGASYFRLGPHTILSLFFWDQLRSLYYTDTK
UniProt Q0GE19: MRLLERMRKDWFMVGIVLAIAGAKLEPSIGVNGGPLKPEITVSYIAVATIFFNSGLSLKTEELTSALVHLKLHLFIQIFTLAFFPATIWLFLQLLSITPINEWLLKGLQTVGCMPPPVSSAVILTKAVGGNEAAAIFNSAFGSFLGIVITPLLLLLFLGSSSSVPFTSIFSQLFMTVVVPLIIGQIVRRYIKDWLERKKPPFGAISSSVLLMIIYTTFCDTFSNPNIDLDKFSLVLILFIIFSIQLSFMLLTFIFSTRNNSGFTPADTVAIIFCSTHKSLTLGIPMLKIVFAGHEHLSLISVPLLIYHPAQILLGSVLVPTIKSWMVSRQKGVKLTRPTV
UniProt Q9H2H9: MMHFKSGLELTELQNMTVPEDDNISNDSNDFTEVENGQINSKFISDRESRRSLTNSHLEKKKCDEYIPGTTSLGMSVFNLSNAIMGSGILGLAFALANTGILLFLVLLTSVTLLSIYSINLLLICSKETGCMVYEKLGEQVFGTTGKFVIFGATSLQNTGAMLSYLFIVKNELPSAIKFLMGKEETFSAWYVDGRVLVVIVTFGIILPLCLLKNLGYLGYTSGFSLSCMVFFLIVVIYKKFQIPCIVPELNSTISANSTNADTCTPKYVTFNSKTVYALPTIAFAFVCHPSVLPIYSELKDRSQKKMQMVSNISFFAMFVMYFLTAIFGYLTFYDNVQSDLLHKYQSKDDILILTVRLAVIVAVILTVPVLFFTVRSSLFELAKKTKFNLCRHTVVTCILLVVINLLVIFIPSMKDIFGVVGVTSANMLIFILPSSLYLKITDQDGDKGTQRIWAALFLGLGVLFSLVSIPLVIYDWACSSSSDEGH
UniProt Q96GZ6: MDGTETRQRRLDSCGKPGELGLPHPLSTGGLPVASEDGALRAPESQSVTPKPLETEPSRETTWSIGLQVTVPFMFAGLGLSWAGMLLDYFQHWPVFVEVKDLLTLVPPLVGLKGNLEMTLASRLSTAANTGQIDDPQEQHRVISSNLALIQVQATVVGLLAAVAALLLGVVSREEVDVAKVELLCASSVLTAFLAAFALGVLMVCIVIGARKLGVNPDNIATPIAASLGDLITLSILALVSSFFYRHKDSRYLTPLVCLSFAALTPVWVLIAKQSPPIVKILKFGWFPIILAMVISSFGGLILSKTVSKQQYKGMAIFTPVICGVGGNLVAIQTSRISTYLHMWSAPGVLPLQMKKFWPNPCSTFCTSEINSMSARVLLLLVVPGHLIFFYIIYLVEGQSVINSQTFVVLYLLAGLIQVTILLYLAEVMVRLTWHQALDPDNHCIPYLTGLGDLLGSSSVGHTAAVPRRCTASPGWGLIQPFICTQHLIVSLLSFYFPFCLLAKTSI
UniProt Q02978: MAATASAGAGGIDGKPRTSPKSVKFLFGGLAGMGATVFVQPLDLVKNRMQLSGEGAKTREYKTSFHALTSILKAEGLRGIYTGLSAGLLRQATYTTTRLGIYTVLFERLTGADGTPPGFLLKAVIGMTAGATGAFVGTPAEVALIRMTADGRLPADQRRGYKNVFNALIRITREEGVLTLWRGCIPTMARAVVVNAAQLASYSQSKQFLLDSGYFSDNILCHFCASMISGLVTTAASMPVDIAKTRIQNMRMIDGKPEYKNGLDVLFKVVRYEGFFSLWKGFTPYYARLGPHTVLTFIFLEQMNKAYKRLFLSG
UniProt Q9BZJ4: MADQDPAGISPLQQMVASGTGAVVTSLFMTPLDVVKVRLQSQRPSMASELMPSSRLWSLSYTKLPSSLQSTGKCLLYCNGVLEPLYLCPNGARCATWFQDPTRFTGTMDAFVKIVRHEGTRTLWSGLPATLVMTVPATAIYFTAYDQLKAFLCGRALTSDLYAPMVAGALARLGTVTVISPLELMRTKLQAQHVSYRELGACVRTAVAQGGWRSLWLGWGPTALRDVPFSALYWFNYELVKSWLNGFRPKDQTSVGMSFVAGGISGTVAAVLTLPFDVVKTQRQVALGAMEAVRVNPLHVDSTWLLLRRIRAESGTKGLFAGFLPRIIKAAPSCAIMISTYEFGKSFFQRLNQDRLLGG
UniProt Q9UGH3: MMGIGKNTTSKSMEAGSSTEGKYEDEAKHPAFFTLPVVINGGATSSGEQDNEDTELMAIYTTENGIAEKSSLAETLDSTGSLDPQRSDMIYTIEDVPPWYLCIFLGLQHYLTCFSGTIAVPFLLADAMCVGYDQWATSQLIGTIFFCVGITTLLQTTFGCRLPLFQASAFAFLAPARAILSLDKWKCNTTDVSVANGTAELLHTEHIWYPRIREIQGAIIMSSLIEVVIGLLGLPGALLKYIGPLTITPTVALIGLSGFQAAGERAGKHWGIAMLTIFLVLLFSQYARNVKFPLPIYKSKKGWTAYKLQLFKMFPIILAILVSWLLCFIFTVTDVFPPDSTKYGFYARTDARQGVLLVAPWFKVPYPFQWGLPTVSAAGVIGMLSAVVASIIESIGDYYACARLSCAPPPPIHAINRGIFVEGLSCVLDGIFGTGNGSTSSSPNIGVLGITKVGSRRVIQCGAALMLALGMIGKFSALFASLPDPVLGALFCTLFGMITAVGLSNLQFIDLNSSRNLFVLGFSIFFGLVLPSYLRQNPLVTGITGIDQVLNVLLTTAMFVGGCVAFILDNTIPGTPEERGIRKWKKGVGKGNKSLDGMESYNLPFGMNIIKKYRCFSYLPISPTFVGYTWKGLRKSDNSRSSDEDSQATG
UniProt F5GZS6: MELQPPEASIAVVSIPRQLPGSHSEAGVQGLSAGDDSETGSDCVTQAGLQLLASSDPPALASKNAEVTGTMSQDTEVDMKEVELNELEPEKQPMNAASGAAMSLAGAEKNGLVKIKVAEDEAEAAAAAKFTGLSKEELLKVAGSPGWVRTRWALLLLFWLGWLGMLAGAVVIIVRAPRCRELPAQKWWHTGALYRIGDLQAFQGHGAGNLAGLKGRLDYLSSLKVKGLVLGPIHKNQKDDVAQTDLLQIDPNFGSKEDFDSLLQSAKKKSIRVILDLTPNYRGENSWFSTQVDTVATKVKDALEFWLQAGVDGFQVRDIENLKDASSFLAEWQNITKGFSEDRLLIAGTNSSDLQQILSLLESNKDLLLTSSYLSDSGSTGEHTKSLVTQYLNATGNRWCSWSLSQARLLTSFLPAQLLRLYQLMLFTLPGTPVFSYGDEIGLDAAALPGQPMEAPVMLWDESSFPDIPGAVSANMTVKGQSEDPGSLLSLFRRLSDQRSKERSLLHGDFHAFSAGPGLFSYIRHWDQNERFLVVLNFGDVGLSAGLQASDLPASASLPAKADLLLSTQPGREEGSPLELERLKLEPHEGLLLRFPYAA
UniProt Q96AG3: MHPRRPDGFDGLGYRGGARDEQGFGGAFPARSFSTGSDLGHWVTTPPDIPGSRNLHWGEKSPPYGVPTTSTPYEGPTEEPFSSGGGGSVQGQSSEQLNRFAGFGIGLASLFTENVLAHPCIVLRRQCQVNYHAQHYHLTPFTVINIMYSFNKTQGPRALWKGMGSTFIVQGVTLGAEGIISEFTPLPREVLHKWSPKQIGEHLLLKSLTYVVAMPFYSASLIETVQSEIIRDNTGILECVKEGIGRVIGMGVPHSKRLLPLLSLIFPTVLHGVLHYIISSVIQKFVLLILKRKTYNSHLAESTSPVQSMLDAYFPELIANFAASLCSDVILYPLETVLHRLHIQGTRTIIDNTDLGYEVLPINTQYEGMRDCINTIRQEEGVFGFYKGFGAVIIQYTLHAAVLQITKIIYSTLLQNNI
UniProt Q7Z769: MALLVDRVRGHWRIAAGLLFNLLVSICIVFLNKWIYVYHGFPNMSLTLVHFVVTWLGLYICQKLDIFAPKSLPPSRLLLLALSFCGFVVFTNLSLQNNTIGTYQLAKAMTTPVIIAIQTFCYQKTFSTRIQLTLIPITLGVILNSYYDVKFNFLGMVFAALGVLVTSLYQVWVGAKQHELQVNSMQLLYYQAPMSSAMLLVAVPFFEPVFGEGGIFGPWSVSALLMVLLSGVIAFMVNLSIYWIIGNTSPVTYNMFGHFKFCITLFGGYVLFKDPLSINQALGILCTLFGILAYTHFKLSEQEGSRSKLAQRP
UniProt Q9BS91: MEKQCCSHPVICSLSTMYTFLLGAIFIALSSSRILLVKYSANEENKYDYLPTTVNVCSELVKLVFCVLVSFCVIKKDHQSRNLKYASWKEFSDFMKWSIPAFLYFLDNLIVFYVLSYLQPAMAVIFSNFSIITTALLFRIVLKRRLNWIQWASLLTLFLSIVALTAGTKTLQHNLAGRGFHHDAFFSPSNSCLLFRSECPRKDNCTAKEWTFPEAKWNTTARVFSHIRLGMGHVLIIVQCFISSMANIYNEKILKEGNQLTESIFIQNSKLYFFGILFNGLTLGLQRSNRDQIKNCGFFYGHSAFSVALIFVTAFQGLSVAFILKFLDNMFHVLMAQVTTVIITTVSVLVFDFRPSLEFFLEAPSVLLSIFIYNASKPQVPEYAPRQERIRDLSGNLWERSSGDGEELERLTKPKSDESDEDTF

What was measured:
Assay in all cases: log2 fold change, soluble protein after heating vs DMSO (PISA); higher = thermal stabilisation; K562 cells, 10 uM, 30 min; active = over 0.2 and 3.5 SD of the protein, either way, in both replicates (recomputed)
[1] = compound: Cc1sc2c(c1C)C(c1ccc(Cl)cc1)=N[C@@H](CC(=O)OC(C)(C)C)c1nnc(C)n1-2
How it was run: (§1)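 K562 cells at 2×10^6 cells/mL were given 10 μM compound for 30 min. Aliquots then went through 3 min of heating across 48°C-58°C, were pooled, and were extracted in PBS with 0.5% NP-40 at 4°C, and the supernatant after 21,000xg for 90 min was quantified by TMTpro 16plex LC-MS/MS with channel sums equalised. Thermal stability relative to control samples, from duplicates, is given as log2 fold change.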

[2] = compound: CC1=C(SC2=C1C(=N[C@H](C3=NN=C(N32)C)CC(=O)N)C4=CC=C(C=C4)Cl)C
How it was run: as §1

[3] = compound: CC1=C2C(=CC=C1)N=C(N(C2=O)C3=CC=CC=C3C)CN4C=NC5=C(N=CN=C54)N
How it was run: as §1

[4] = compound: c1ccc([C@@H]2C[C@H]2NC2CCNCC2)cc1
How it was run: as §1

[5] = compound: C1=CC=C(C=C1)[C@H](COC2=CC3=C(C=C2)NC(=O)N3)NC(=O)C4=CC=CN(C4=O)CC5=CC(=C(C=C5)F)F
How it was run: as §1

Measured: log2 fold change

SLC35G1 (UniProt Q2M3R5)
inactive: [1] -0.163

SLC25A35 (UniProt Q3KQZ1)
inactive: [2] -0.029 | [3] 0.048 | [1] 0.022 | [4] 0.028

SLC10A7 isoform 1 (UniProt Q0GE19)
inactive: [5] -0.187 | [1] 0.058

SLC38A1 (UniProt Q9H2H9)
inactive: [5] -0.041 | [2] 0.018 | [3] -0.003 | [1] -0.049 | [4] -0.035

SLC41A3 isoform 9 (UniProt Q96GZ6)
inactive: [5] -0.115 | [1] -0.052

SLC25A11 (UniProt Q02978)
inactive: [5] 0.014 | [2] 0.018 | [3] 0.01 | [1] -0.031 | [4] 0.045

SLC25A39 (UniProt Q9BZJ4)
inactive: [5] 0.031 | [2] -0.166 | [3] 0.149 | [1] 0.09 | [4] 0.019

SLC23A2 (UniProt Q9UGH3)
inactive: [5] 0.324 | [1] -0.126

SLC3A2 (UniProt F5GZS6)
inactive: [5] 0 | [3] -0.122 | [1] 0.011

SLC25A46 (UniProt Q96AG3)
inactive: [5] 0.002 | [2] -0.004 | [3] 0.096 | [1] -0.038 | [4] -0.009

SLC35E3 (UniProt Q7Z769)
inactive: [1] -0.043

2 records picked at random from the list so far:
SLC25A39 (UniProt Q9BZJ4)
inactive: [5] 0.031 | [2] -0.166 | [3] 0.149 | [1] 0.09 | [4] 0.019

SLC3A2 (UniProt F5GZS6)
inactive: [5] 0 | [3] -0.122 | [1] 0.011

(further entries)

SLC35A5 (UniProt Q9BS91)
inactive: [2] 0.082 | [1] -0.013 | [4] 0.01
